The supplement of paper PMC11732987, “Enantioselective OTUD7B fragment discovery through chemoproteomics screening and high-throughput optimisation” (Communications Chemistry, 2025)
The other results are listed elsewhere or left out. The data scatter; read single values as rough.

Amino acid sequences for entries named in this document (tags omitted). A change or cut given only in a name is not applied to a line headed by its entry. Residues count along the entry.
UniProt Q9BQ52: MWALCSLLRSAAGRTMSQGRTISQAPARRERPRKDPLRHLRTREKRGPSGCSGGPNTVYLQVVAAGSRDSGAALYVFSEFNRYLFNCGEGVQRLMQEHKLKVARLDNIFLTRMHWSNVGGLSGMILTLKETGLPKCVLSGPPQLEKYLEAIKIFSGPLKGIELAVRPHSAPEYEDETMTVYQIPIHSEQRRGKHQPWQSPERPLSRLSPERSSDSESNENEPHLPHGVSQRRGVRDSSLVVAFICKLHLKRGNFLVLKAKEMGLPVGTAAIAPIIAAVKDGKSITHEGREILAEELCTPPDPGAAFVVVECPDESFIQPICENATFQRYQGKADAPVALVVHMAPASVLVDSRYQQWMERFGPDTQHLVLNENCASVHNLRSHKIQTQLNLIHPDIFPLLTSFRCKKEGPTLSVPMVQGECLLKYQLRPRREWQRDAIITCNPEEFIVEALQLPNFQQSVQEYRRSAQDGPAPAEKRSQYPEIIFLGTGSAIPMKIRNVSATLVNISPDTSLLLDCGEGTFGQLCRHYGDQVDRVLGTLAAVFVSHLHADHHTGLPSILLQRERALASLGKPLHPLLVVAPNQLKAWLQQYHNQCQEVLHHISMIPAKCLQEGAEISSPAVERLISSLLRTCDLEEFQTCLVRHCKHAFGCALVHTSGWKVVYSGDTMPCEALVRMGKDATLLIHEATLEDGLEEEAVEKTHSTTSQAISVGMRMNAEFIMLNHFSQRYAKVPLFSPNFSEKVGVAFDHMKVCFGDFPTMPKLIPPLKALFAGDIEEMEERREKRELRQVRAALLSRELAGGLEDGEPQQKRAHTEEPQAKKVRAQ
UniProt Q14204, whole entry, looked up: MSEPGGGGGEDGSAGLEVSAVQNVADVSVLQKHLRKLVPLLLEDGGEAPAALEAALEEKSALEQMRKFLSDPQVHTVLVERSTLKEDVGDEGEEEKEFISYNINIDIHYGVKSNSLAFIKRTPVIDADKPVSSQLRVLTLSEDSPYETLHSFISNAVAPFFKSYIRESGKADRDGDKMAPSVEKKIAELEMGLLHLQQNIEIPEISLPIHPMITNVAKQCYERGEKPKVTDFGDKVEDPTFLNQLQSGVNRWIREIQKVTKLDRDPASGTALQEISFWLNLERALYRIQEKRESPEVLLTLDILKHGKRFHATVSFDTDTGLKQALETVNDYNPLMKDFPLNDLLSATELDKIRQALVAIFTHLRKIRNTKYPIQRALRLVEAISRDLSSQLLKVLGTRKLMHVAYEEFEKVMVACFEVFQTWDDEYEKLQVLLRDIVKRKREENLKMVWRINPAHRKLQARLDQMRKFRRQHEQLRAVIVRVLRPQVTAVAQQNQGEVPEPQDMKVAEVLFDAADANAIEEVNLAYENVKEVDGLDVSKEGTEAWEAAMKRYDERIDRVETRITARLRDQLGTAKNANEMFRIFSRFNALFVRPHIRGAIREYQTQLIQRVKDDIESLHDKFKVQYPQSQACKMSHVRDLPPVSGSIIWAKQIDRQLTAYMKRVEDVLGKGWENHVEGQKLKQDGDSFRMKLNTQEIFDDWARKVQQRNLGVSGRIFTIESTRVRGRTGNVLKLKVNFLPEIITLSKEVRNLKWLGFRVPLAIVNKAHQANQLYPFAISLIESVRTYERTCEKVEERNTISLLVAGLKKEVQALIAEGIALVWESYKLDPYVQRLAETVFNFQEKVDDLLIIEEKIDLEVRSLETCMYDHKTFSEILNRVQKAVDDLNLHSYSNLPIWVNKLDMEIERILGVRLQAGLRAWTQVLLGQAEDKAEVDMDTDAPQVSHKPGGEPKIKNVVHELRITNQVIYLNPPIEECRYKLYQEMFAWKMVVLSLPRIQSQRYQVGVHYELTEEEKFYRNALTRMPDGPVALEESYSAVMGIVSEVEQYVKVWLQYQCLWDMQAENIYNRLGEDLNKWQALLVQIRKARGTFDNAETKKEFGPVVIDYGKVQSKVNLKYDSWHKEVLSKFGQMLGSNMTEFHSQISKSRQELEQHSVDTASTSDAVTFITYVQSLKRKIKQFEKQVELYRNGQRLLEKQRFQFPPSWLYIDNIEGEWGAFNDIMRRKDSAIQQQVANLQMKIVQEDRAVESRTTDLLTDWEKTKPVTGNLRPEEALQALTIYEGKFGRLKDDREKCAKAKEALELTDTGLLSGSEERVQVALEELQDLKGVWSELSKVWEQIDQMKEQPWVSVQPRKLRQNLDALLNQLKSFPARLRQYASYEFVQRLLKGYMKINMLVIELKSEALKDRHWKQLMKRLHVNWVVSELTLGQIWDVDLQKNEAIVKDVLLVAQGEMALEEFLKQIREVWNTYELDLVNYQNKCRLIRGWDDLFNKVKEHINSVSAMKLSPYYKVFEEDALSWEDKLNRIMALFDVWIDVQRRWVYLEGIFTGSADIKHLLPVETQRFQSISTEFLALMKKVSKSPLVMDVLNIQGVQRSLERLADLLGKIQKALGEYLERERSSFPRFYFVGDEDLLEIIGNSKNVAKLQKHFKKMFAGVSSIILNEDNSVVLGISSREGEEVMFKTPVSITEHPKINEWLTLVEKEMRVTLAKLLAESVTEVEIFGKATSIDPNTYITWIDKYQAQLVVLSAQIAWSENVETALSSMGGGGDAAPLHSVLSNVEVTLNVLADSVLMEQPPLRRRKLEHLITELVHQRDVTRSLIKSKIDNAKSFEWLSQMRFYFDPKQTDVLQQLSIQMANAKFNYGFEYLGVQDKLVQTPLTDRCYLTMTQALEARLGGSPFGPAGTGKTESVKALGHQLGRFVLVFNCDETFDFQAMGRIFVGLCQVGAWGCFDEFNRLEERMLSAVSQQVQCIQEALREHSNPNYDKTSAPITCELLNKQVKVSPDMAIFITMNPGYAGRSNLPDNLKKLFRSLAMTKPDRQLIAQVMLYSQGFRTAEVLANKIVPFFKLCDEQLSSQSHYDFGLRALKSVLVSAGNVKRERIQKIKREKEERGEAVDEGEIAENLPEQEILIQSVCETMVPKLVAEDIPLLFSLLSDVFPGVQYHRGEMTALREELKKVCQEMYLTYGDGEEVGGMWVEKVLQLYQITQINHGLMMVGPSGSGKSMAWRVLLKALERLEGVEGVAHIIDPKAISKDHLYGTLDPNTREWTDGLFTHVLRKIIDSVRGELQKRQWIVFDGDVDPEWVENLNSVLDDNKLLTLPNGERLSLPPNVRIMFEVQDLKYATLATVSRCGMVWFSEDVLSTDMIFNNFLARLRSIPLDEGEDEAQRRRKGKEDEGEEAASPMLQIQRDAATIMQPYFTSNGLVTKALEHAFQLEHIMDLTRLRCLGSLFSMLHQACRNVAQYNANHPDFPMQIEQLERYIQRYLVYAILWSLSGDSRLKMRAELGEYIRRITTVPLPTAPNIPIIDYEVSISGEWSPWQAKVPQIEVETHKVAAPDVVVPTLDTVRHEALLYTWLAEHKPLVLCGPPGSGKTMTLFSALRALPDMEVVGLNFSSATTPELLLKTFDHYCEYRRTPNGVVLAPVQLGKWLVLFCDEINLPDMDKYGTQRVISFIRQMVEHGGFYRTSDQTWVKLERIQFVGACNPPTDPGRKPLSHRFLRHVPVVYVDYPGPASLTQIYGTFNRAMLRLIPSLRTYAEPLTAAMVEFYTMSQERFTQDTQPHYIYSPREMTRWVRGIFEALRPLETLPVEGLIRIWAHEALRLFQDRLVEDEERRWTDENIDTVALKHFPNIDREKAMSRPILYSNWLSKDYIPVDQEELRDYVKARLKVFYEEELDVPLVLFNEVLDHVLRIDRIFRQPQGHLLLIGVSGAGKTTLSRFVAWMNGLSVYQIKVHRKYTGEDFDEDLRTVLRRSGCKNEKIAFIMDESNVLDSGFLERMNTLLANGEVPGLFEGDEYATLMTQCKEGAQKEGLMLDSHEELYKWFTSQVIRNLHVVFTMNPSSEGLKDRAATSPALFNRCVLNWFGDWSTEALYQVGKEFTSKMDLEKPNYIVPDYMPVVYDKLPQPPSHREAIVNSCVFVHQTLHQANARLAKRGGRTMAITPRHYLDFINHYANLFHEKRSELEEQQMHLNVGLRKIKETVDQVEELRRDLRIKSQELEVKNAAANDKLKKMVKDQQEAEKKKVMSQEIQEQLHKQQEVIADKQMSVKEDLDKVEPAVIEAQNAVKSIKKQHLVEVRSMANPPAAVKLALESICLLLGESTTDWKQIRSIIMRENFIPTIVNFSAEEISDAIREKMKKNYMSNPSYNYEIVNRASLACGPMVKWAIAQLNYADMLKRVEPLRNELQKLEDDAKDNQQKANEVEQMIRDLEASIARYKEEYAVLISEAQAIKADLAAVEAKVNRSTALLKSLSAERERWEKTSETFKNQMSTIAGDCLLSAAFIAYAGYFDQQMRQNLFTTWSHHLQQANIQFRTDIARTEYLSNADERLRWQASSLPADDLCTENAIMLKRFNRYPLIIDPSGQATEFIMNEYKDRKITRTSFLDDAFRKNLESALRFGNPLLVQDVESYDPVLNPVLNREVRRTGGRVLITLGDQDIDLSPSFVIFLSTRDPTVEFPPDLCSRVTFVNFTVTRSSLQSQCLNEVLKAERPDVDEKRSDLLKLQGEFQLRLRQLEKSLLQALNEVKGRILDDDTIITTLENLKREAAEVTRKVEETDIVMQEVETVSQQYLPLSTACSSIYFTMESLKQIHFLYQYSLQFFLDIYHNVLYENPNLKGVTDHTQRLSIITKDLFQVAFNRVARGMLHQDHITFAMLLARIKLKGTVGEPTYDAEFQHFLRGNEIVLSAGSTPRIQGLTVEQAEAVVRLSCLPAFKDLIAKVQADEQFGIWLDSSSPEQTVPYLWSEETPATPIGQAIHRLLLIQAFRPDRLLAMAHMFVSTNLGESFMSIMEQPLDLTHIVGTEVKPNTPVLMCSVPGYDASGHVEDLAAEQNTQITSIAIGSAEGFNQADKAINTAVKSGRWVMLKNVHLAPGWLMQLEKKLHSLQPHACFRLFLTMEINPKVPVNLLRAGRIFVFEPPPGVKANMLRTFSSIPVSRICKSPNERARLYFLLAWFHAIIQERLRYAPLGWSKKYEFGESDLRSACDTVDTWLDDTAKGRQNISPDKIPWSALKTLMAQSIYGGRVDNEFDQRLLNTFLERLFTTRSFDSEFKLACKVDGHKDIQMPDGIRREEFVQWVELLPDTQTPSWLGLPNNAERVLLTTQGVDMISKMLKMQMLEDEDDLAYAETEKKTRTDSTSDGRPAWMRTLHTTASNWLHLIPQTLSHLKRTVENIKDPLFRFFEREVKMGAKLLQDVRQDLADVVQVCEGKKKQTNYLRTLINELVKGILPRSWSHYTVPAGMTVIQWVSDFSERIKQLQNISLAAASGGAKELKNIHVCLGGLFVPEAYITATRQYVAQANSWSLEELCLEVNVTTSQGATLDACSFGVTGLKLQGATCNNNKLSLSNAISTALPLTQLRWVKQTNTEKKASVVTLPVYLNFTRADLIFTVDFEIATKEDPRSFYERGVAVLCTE
UniProt P55010, whole entry, looked up: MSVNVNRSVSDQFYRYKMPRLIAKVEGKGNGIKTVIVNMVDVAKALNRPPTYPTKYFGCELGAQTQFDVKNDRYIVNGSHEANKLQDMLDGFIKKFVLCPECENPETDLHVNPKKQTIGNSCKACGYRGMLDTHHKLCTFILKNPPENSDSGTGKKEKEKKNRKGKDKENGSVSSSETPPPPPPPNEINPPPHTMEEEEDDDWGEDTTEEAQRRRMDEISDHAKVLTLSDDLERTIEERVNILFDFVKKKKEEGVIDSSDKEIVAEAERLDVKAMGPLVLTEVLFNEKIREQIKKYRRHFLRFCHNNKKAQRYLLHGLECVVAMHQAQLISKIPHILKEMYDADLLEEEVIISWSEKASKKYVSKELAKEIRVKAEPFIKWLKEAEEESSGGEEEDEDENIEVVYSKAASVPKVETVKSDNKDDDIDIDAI
UniProt A8K855: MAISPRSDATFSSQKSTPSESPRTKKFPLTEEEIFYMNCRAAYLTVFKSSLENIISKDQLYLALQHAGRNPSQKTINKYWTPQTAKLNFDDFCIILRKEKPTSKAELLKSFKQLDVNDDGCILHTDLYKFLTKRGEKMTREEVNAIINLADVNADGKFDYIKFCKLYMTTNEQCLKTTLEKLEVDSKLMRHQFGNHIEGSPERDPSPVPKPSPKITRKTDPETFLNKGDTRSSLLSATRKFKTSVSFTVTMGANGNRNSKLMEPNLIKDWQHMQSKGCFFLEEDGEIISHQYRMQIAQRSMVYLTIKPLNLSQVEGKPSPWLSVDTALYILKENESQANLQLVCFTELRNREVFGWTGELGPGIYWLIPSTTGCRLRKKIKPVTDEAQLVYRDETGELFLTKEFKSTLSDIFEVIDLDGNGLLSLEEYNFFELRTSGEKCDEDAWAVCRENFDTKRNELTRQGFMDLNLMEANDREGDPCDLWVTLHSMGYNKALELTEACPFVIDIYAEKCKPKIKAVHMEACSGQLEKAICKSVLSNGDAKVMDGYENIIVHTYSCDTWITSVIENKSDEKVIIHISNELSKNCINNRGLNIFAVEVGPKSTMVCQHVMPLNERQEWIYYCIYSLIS
UniProt Q7Z2Z2, 453-476: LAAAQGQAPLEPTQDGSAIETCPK

Compound: ClCC(=O)N[C@@H]1CCCc2ccccc12
Assay: log2 mean competition ratio of IA-DTB cysteine labelling (DMSO/compound) (log2 ratio); higher = stronger cysteine engagement by compound
Conditions: 200 µM; treatment time: 4 h; cell line lysate: HEK293T
Procedure: (§1)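 IA-DTB competitive cysteine chemoproteomics in HEK293T RIPA lysate. Lysates were treated with compound 29 or 30 at 50 or 200 µM for 4 h, then IA-DTB (500 µM, 1 h), trypsin-digested, NeutrAvidin-enriched and analysed by diaPASEF. Competition ratio = intensity DMSO / intensity compound (n=4 treated, n=64 DMSO); binding: mean log2 CR ≥ 1 and p ≤ 0.05 plus QC filters. Target is the cysteine site.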

Row | Target | log2 mean competition ratio
1 | DTX3L C219 (UniProt Q8TDB6) | 0.206
2 | DUSP12 C11 | 0.212
3 | ELAC2 C136 (UniProt Q9BQ52) | -0.114
4 | DYNC1H1 C867 (UniProt Q14204) | -0.142
5 | EIF3C C79 (UniProt Q99613) | -0.105
6 | DUSP11 C211 | -0.0883
7 | EIF5 C122 (UniProt P55010) | 0.0812
8 | DRG2 C319 (UniProt P55039) | -0.403
9 | DSP C798 (UniProt P15924) | 0.27
10 | EDC4 C510 (UniProt Q6P2E9) | -0.471
11 | EFCAB7 C121 (UniProt A8K855) | 0.145

Compound: ClCC(=O)N[C@H]1CCCc2ccccc12
Assay: as above
Conditions: 50 µM; treatment time: 4 h; cell line lysate: HEK293T
Procedure: as §1

Row | Target | log2 mean competition ratio
12 | DSC2 C898 (UniProt Q02487) | 0.0781
13 | EFEMP1 C190 (UniProt Q12805) | 0.122
14 | EFL1 C474 (UniProt Q7Z2Z2) | -0.0467
15 | DYNC1H1 C4216 (UniProt Q14204) | -0.21
16 | DYNC2H1 C3277 (UniProt Q8NCM8) | 0.138
17 | DYNC2I1 C57 | -0.375
18 | EDC4 C4 (UniProt Q6P2E9) | -0.326
19 | EIF4G3 C1411 | 0.15
20 | EIF4EBP1 C62 (UniProt Q13541) | 0.131
21 | EARS2 C386 (UniProt Q5JPH6) | 0.0509
22 | DRG2 C270 (UniProt P55039) | -0.0282
23 | DYNC2H1 C3657 (UniProt Q8NCM8) | 0.081
24 | DYNC1H1 C3712 (UniProt Q14204) | -0.275
25 | DSTN C23 (UniProt P60981) | 0.0136
26 | DSP C1855 (UniProt P15924) | -0.198
27 | ECI2 C368 (UniProt O75521) | -0.827
28 | DSP C1052 (UniProt P15924) | -0.124
29 | EDRF1 C1007 (UniProt Q3B7T1) | -0.548
30 | ELL C14 (UniProt P55199) | 0.376

Row | Target | log2 mean competition ratio
31 | DYNC1H1 C633 (UniProt Q14204) | 0.135
32 | EIF3A C198 (UniProt Q14152) | 0.186
33 | EFNB1 C314 (UniProt P98172) | 0.0334
34 | EIF4E3 C69 (UniProt Q8N5X7) | -0.458
35 | EEF2 C567 (UniProt P13639) | -0.449
36 | DTX3L C309 (UniProt Q8TDB6) | -0.136
37 | EEF2 C41 (UniProt P13639) | -0.0231
38 | EDC4 C838 (UniProt Q6P2E9) | -0.213
39 | DTX3L C219 (UniProt Q8TDB6) | 0.0406
40 | DUSP12 C11 | 0.587
41 | ELAC2 C136 (UniProt Q9BQ52) | -0.0835
42 | DYNC1H1 C867 (UniProt Q14204) | 0.0296
43 | EIF3C C79 (UniProt Q99613) | -0.188
44 | DUSP11 C211 | -0.0115
45 | EIF5 C122 (UniProt P55010) | -0.19
46 | DRG2 C319 (UniProt P55039) | 0.21
47 | DSP C798 (UniProt P15924) | -0.487
48 | EDC4 C510 (UniProt Q6P2E9) | 0.441
49 | EFCAB7 C121 (UniProt A8K855) | -0.115

Same assay, conditions: 200 µM; treatment time: 4 h; cell line lysate: HEK293T

Row | Target | log2 mean competition ratio
50 | DSC2 C898 (UniProt Q02487) | 0.0273
51 | EFEMP1 C190 (UniProt Q12805) | 0.399
52 | EFL1 C474 (UniProt Q7Z2Z2) | -0.0678
53 | DYNC1H1 C4216 (UniProt Q14204) | 0.394
54 | DYNC2H1 C3277 (UniProt Q8NCM8) | 0.0825
55 | DYNC2I1 C57 | 0.274
56 | EDC4 C4 (UniProt Q6P2E9) | 0.113
57 | EIF4G3 C1411 | -0.235
58 | EIF4EBP1 C62 (UniProt Q13541) | 0.364
59 | EARS2 C386 (UniProt Q5JPH6) | -0.125
60 | DRG2 C270 (UniProt P55039) | -0.181
61 | DYNC2H1 C3657 (UniProt Q8NCM8) | 0.0671
62 | DYNC1H1 C3712 (UniProt Q14204) | 0.104
63 | DSTN C23 (UniProt P60981) | -0.324
64 | DSP C1855 (UniProt P15924) | -0.171
65 | ECI2 C368 (UniProt O75521) | 0.159
66 | DSP C1052 (UniProt P15924) | 0.179
67 | EDRF1 C1007 (UniProt Q3B7T1) | 0.135
68 | ELL C14 (UniProt P55199) | 0.0998

Row | Target | log2 mean competition ratio
69 | DYNC1H1 C633 (UniProt Q14204) | 0.246
70 | EIF3A C198 (UniProt Q14152) | -0.224
71 | EFNB1 C314 (UniProt P98172) | -0.065
72 | EIF4E3 C69 (UniProt Q8N5X7) | -0.289
73 | EEF2 C567 (UniProt P13639) | -0.418
74 | DTX3L C309 (UniProt Q8TDB6) | 0.466
75 | EEF2 C41 (UniProt P13639) | 0.0688
76 | EDC4 C838 (UniProt Q6P2E9) | 0.0869
77 | DTX3L C219 (UniProt Q8TDB6) | 0.176
78 | DUSP12 C11 | 0.374
79 | ELAC2 C136 (UniProt Q9BQ52) | 0.119
80 | DYNC1H1 C867 (UniProt Q14204) | -0.192
81 | EIF3C C79 (UniProt Q99613) | 0.0586
82 | DUSP11 C211 | 0.072
83 | EIF5 C122 (UniProt P55010) | 0.177
84 | DRG2 C319 (UniProt P55039) | -0.333
85 | DSP C798 (UniProt P15924) | -0.15
86 | EDC4 C510 (UniProt Q6P2E9) | -0.486
87 | EFCAB7 C121 (UniProt A8K855) | 0.274
